# No constants are given. Whether binding was seen depends on the method and setting. Binding seen in cells or lysates may run through a third protein. Some results given as binding are weak or reduced against the parent protein; the word gives no strength.
# Protein sequences, listed by entry. Tags and fused reporters are not part of them.
# UniProt P26196: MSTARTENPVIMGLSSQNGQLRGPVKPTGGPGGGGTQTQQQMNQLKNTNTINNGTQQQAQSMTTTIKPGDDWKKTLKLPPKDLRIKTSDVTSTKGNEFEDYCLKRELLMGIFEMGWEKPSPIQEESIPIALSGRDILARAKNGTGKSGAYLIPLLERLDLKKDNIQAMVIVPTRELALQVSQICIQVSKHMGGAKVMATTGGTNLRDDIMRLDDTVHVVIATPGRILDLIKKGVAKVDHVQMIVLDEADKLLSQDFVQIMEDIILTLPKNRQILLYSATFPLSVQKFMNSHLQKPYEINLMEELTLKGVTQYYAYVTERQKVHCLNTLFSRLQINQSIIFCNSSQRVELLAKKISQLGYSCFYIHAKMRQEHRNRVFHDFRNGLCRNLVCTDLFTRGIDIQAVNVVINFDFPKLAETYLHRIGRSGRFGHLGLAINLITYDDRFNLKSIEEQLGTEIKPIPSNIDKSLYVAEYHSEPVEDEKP
# B1: endogenous Rab3B (protein, UniProt P20337 1-219)
# chain: MASVTDGKTGVKDASDQNFDYMFKLLIIGNSSVGKTSFLFRYADDTFTPAFVSTVGIDFKVKTVYRHEKRVKLQIWDTAGQERYRTITTAYYRGAMGFILMYDITNEESFNAVQDWATQIKTYSWDNAQVILVGNKCDMEEERVVPTEKGQLLAEQLGFDFFEASAKENISVRQAFERLVDAICDKMSDSLDTDPSMLGSSKNTRLSDTPPLLQQNCSC
# Molecular target: DDX6 (human (endogenous in H1299, H1792, A549 and H1944)) (UniProt P26196)
# Assay: co-IP; endogenous proteins in A549 and H1944 cells; lysis in ice-cold RIPA buffer with protease inhibitors; anti-Rab3B, anti-DDX6 or IgG overnight at 4 °C, protein A/G agarose beads; Western blot
binder,measurement,value
B1,binding,binds

# From PMC11151598
